Test results taken from publication PMC5503561.
No constants are given. Whether binding was seen depends on the method and setting. Binding seen in cells or lysates may run through a third protein. Some entries that bind do so weakly or less than the wild type.

Chains of the proteins cited; added tags and fusions are not shown.
UniProt P05412: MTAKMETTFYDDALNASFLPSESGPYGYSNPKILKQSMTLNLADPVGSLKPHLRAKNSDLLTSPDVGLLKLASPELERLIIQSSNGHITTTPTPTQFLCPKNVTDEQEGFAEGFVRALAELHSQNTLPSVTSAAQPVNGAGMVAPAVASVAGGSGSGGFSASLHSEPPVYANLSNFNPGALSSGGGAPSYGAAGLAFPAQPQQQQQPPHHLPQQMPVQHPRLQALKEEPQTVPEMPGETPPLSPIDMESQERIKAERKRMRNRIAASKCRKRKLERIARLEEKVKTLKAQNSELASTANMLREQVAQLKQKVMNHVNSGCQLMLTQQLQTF

Molecular target: HA-c-Jun (UniProt P05412)
Assay: co-IP; HEK293T cells transfected with flg-dvl, HA-c-Jun and hPar2, SLIGKV PAR2 activation (prominent after 5 h); cell nuclei; immunoprecipitation with anti-HA, Western blot with anti-flg

- binding: binds
B1: flg-DVL1 (Disheveled 1, wt) (protein, UniProt P51141 1-695)
chain: MAETKIIYHMDEEETPYLVKLPVAPERVTLADFKNVLSNRPVHAYKFFFKSMDQDFGVVKEEIFDDNAKLPCFNGRVVSWLVLAEGAHSDAGSQGTDSHTDLPPPLERTGGIGDSRPPSFHPNVASSRDGMDNETGTESMVSHRRERARRRNRDEAARTNGHPRGDRRRDLGLPPDSASTVLSSELESSSFIDSDEEDNTSRLSSSTEQSTSSRLVRKHKCRRRKQRLRQTDRASSFSSITDSTMSLNIITVTLNMERHHFLGISIVGQSNDRGDGGIYIGSIMKGGAVAADGRIEPGDMLLQVNDVNFENMSNDDAVRVLREIVSQTGPISLTVAKCWDPTPRSYFTIPRADPVRPIDPAAWLSHTAALTGALPRYGTSPCSSAITRTSSSSLTSSVPGAPQLEEAPLTVKSDMSAIVRVMQLPDSGLEIRDRMWLKITIANAVIGADVVDWLYTHVEGFKERREARKYASSMLKHGFLRHTVNKITFSEQCYYVFGDLCSNLASLNLNSGSSGASDQDTLAPLPHPSVPWPLGQGYPYQYPGPPPCFPPAYQDPGFSCGSGSAGSQQSEGSKSSGSTRSSHRTPGREERRATGAGGSGSESDHTVPSGSGSTGWWERPVSQLSRGSSPRSQASAVAPGLPPLHPLTKAYAVVGGPPGGPPVRELAAVPPELTGSRQSFQKAMGNPCEFFVDIM
